The text below walks through data of PMC3288005.

Protein sequences, listed by entry. Tags and fused reporters are not part of them.
UniProt Q7Z434: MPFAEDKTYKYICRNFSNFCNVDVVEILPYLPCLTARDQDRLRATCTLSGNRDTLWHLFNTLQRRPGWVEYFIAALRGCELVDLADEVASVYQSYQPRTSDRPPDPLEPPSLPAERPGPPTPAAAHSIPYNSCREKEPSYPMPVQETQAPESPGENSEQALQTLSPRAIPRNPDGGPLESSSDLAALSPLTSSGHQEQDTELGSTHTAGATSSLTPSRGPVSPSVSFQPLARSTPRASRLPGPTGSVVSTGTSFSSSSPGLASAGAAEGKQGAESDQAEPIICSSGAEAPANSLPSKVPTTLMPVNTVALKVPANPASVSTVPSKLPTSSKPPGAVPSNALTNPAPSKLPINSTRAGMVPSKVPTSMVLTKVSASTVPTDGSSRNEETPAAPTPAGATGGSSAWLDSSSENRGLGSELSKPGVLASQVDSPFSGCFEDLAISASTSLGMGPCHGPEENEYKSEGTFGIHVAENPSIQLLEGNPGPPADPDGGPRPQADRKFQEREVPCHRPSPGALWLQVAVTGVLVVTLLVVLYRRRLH

For assay [1], the target named is T1, RIG-I (retinoic acid inducible gene), endogenous (human (endogenous in A549)) (UniProt O95786).
T1 sequence: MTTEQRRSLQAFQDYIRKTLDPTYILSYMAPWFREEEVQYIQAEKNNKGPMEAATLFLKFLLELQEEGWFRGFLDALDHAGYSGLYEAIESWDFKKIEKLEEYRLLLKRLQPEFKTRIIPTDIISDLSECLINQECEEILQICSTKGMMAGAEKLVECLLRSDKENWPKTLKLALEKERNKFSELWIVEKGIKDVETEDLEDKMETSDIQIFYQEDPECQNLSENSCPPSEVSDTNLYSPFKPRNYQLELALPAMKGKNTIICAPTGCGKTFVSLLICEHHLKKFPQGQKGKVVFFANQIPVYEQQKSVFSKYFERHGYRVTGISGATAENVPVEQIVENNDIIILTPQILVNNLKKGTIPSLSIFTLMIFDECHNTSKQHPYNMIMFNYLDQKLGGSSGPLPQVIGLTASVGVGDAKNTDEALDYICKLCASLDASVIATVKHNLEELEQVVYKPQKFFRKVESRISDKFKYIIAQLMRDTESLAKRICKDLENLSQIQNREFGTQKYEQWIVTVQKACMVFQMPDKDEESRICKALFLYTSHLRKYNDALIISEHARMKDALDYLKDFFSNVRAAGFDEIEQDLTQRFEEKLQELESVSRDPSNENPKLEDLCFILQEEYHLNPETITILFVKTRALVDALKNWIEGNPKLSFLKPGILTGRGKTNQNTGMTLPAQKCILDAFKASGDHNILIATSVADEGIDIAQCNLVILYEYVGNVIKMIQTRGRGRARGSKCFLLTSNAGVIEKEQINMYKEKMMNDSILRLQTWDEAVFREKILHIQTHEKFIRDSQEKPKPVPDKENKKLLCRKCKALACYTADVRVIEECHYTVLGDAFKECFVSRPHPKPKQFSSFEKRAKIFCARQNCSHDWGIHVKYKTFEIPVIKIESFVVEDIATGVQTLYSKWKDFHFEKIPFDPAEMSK
As to the kind of experiment: co-IP; A549 cells mock-infected or infected with rA2 or rA2ΔNS1 (MOI 1), 24 h after infection; whole cell lysates precipitated with anti-RIG-I antibody; blots with anti-RIG-I, anti-MAVS and anti-NS1.

The target in assay [2] is Mitochondrial antiviral signaling protein (MAVS), endogenous (human (endogenous in HEp-2 and A549)) (UniProt Q7Z434). As to the kind of experiment: co-IP; HEp-2 cells mock-infected or infected with rA2, rA2ΔNS1 or rA2ΔNS2 at MOI 1, 24 h p.i.; total cell lysates precipitated with anti-MAVS antibody and protein A-agarose; blots with anti-NS1 antiserum, anti-MAVS and anti-RSV F.

The target is the same in assay [3]. Kind of assay: co-IP; A549 cells transfected with pNS1-Flag or pFlag; total cell extracts precipitated with anti-MAVS antibody; blots with anti-Flag and anti-MAVS.
Assay [4] has the same target. As to the kind of experiment: co-IP; A549 cells transfected with pVAX or pNS1 with 0.2 ng/ml poly(I:C), harvested 12 and 24 h after transfection; extracts precipitated with anti-MAVS; blots with anti-RIG-I and anti-MAVS.
The target of assay [5] is MAVS expressed from plasmid pMAVS (Invivogen) (UniProt Q7Z434). Kind of assay: co-IP; A549 cells co-transfected with constant amounts (6 µg) of pMAVS and pRIG-I and increasing amounts of pNS1 (pVAX to keep total DNA constant), with 0.2 ng/ml poly(I:C); precipitated with anti-MAVS, blotted with anti-RIG-I.

No constants are given. Whether binding was seen depends on the method and setting. Binding seen in cells or lysates may run through a third protein. Some entries that bind do so weakly or less than the wild type. For some assays here: Sequences can lack the tags named with a protein.

B1: Respiratory syncytial virus nonstructural protein 1 (NS1), expressed from recombinant RSV rA2 or rA2ΔNS2 in infected cells (protein, UniProt P0DOE9 1-139)
chain: MGSNSLSMIKVRLQNLFDNDEVALLKITCYTDKLIHLTNALAKAVIHTIKLNGIVFVHVITSSDICPNNNIVVKSNFTTMPVLQNGGYIWEMMELTHCSQPNGLLDDNCEIKFSKKLSDSTMTNYMNQLSELLGFDLNP
Take B1: the binding result in assay [1] and in assay [2] was “binds” in each case.

B2: Flag-NS1 (RSV NS1 expressed from plasmid pNS1-Flag) (protein, UniProt P0DOE9 1-139)
chain: B1 chain
Take B2: the binding result in assay [3] was “binds”.

B3: RSV NS1 expressed from plasmid pNS1 (pVAX backbone) (protein, UniProt P0DOE9 1-139)
chain: B1 chain
On to B3, for which the binding result in assay [4] and in assay [5] was “binds” in each case.
